The results in this text go back to article PMC12585102.

This test concerns the target Zinc finger NFX1-type containing 1 of Epinephelus coioides, HA-tagged (EcZNFX1-HA) (Epinephelus coioides). The experiment in a line: co-IP; HEK-293T cells co-transfected, lysed 36 h after transfection; supernatant incubated with anti-HA magnetic beads 1-2 h, washed five times; Western blot. For orientation: In western blotting, separated proteins are transferred to a membrane and probed.

These are yes or no findings as the source states them, for the method shown. In cells and extracts the contact can be indirect. Sequences can lack the tags named with a protein.

B1: EcMAVS-GFP (mitochondrial antiviral signalling protein of Epinephelus coioides, GFP-tagged) (protein, UniProt A0A2D1AFT4 1-563)
chain: MSFVNDRLYNEFVRRKMSIFVHKVDVGEIIYHLPCLTAHDREHIEAKRQNRGNREGVMELLDCLKRRENWPEQFIEALDACEQWTLAAEMREKYNALRGIKRAAVAPPAEASAPPEPAAQASPPVQPQAPQSSAAQVPEAVSPPEPVPEPPQSTQAEVAPPPSTPPPSPAAPHTQPATPPPPQRETNSHQEPVENSESDIQDVSADDVVIPDQVSAGNREVSISSVDAPQPSRPVEQCETHTASPDPLQTTTTSTEVSPPQSPSASQMNSDVTNGSSFLTLTPERPPVQDTSPPGDFKAVLQPEETSEPPAAQVVESSPQTEAAATTSPPLGAAGMGAPLCGDSSVCLSKPGPLISVHPLNHSSPTIPAQSLPVPPYSGNTERLEISSSVSDAVTTAQSSTCSYVSSTTVTTASAPPCQETGIALNHNEPEENHYESPRNSLGMQSVQEHVGHVSEEPSILNLDGQNLTPQVPAVDSEAAKEMTFAPPLSNTAADTVRSVNTSCSENHHPCEPTPTDLSAEQKTLQGSEDKMACRTLTPNTKYILIAAGVGVCALLIAWRFKH
With B1, the binding result is “no binding”.
